Data: the supplement of paper PMC7666118
The other results are listed elsewhere or left out.

Chains of the proteins cited; added tags and fusions are not shown. Lines headed by an entry give the natural chain unless they say otherwise; changes in a name come on top.
UniProt Q5QJE6: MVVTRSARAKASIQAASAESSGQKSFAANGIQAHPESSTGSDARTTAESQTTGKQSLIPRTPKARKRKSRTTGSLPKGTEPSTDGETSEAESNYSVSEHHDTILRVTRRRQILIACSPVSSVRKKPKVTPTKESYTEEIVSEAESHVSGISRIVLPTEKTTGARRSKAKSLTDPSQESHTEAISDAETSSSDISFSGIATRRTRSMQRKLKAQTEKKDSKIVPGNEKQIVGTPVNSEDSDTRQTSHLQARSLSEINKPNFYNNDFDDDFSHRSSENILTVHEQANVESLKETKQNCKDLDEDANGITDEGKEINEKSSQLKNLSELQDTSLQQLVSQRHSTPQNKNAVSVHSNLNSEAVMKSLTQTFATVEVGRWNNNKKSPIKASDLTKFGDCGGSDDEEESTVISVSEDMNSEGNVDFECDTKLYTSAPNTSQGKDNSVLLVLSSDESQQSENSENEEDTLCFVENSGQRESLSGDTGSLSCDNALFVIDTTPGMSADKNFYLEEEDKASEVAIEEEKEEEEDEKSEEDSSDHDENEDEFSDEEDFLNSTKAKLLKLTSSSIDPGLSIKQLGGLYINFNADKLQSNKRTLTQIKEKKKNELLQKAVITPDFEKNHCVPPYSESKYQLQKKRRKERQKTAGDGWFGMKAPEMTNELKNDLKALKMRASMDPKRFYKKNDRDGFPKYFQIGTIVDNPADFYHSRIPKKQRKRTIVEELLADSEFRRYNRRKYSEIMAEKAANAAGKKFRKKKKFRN
UniProt Q16531, whole entry: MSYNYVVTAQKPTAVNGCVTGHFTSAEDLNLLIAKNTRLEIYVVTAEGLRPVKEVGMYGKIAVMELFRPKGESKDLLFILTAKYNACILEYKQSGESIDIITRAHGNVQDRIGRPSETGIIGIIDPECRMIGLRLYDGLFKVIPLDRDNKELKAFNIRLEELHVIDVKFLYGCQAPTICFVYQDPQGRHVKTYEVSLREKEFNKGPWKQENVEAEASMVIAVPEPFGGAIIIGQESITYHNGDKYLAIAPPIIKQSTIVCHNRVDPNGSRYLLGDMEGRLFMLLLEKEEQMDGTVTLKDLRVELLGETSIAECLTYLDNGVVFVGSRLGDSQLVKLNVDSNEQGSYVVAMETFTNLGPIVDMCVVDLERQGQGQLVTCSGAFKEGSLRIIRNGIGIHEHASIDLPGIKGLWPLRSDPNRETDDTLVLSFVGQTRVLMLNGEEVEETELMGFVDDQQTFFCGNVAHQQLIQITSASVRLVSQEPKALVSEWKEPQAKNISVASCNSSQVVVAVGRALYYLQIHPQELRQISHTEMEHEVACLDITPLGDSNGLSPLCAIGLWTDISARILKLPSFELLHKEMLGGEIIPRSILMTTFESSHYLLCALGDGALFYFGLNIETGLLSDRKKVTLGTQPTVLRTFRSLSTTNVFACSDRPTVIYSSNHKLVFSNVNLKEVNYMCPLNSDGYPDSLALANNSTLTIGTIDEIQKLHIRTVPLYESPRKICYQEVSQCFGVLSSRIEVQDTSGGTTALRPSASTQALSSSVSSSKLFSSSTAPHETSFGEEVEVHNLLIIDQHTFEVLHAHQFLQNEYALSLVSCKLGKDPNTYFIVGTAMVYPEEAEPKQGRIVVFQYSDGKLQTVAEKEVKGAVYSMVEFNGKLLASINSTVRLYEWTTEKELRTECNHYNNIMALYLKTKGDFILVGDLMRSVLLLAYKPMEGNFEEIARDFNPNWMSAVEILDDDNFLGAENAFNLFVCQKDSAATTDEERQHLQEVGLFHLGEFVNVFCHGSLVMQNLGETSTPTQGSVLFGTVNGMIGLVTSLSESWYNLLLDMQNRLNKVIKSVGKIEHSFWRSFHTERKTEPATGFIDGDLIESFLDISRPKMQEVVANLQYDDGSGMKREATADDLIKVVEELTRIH
UniProt Q6PI48: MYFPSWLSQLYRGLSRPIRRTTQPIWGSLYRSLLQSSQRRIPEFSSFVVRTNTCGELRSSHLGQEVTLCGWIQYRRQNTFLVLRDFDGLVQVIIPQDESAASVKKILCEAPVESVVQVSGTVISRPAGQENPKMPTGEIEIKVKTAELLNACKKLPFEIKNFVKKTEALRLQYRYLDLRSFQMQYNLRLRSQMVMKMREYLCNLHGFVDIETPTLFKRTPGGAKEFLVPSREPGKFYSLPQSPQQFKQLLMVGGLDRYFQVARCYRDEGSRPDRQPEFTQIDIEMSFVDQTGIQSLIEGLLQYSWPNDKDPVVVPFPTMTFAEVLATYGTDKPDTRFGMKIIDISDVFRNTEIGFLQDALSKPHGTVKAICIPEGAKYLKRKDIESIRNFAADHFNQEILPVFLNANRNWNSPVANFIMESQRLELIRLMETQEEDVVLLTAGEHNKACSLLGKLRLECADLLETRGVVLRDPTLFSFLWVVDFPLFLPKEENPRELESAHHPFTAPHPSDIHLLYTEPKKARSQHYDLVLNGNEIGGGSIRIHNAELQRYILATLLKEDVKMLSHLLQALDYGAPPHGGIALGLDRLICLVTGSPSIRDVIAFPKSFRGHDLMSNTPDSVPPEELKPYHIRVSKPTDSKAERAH
UniProt Q7Z388: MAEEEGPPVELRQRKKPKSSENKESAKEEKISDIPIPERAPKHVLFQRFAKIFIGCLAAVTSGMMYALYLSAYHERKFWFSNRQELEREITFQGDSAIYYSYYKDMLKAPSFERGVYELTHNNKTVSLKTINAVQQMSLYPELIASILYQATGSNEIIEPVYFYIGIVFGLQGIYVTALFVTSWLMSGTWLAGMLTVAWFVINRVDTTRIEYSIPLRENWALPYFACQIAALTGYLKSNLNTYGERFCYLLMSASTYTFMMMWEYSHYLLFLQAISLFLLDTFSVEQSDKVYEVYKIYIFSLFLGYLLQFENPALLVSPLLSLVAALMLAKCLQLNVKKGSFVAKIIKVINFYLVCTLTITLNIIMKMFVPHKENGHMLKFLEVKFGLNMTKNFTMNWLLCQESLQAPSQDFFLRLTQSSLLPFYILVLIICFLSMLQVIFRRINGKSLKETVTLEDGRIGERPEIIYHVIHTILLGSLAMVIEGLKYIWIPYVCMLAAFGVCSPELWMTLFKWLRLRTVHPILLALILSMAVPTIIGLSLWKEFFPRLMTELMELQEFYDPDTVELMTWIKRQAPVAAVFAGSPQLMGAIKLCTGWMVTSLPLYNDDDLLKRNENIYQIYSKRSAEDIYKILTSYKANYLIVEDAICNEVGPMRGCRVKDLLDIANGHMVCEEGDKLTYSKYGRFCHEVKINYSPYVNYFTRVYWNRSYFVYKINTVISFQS
UniProt Q9Y2G8: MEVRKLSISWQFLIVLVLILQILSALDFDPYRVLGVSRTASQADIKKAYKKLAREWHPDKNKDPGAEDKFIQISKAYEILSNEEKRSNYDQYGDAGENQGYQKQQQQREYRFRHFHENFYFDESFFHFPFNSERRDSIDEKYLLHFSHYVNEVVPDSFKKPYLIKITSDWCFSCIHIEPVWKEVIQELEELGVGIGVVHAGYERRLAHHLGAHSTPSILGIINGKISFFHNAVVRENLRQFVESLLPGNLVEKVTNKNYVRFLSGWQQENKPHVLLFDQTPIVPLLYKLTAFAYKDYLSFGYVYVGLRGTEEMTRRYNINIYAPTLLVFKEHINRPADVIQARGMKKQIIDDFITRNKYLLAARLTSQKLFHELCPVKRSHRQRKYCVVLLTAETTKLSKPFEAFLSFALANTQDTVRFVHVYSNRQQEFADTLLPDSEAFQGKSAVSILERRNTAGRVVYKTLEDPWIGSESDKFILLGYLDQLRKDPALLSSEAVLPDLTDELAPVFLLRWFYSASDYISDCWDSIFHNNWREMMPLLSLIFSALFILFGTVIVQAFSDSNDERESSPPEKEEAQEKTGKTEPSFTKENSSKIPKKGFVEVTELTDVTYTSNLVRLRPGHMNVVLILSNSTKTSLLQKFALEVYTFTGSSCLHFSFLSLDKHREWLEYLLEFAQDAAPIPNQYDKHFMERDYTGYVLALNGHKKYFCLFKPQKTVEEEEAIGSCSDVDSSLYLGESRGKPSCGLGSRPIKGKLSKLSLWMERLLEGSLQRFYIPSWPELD
UniProt Q9P2X0: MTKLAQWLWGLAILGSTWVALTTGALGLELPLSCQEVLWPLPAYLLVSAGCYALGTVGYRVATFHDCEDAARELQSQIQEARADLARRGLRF
UniProt O75937: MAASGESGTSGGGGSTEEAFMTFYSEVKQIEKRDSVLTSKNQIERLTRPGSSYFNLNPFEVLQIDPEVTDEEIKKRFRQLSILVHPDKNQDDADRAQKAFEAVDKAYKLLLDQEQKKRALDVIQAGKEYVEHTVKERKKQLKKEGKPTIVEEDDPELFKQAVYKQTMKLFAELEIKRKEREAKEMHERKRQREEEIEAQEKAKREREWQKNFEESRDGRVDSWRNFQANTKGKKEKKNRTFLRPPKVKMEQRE
UniProt Q92499: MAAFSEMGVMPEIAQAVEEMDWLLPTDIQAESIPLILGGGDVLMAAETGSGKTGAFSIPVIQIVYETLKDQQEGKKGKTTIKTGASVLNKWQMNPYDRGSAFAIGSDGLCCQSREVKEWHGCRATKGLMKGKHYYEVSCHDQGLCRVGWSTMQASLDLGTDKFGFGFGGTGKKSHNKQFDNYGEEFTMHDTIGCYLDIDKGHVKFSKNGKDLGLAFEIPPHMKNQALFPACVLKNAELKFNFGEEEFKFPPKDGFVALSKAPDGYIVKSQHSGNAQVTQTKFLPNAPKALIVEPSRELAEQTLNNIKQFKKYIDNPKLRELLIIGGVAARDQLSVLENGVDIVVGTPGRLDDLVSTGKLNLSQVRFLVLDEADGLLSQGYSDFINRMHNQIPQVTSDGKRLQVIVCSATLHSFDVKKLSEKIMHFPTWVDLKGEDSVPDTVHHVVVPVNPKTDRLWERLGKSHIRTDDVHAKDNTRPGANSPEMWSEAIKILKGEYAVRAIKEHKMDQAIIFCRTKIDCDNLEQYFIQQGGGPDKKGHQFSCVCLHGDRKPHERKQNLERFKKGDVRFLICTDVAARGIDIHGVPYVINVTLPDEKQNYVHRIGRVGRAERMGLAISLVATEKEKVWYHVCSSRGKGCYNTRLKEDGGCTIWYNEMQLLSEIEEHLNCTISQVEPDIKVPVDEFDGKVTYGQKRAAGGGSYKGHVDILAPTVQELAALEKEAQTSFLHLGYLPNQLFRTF
UniProt Q9NUU7: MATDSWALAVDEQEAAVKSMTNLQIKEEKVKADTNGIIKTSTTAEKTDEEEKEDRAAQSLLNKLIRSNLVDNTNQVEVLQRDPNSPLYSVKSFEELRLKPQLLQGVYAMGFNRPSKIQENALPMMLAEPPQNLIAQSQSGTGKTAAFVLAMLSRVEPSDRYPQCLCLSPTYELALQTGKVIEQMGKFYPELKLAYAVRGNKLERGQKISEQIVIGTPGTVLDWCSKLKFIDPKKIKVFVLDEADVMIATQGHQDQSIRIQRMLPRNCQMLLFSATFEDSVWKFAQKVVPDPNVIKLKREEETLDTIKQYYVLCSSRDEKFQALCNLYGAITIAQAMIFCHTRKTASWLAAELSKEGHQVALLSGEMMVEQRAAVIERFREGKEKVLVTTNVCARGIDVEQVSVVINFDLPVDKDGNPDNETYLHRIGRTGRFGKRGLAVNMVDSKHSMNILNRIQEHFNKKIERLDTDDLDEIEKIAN
UniProt Q12959, whole entry, looked up: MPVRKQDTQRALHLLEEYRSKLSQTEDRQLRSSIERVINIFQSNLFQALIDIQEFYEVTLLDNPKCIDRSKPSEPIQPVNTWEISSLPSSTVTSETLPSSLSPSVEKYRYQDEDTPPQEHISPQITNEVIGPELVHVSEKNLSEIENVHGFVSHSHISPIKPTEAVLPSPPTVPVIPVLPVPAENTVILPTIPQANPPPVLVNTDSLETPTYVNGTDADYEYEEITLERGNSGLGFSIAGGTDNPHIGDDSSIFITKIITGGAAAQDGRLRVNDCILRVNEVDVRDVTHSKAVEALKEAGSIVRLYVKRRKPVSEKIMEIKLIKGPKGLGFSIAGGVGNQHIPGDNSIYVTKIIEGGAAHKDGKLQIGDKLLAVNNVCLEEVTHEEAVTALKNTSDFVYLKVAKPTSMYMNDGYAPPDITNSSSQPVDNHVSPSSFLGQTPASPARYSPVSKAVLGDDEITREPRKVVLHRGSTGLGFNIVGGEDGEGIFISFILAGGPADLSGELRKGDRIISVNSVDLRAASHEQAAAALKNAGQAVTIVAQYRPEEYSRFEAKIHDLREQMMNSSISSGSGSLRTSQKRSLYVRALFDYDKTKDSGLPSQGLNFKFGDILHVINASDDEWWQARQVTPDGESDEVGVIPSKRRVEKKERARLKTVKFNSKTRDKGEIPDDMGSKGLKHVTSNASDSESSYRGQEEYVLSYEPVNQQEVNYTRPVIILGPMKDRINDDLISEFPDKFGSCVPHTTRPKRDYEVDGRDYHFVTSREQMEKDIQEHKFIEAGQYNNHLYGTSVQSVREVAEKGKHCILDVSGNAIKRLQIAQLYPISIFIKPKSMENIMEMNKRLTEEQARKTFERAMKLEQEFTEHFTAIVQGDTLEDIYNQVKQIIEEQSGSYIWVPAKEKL

compound: COc1ccc(Cn2ccc3cc(C)c(C(=O)NO)cc32)cc1; assay: dose-dependent thermal stabilisation call (2D-TPP, DLPTP, 10% FDR) (binary (1 = stabilised)); higher = stabilised by the compound; conditions: system: HL-60 intact cells; concentration range 0.04-10 µM
Method: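 2D thermal proteome profiling in intact HL-60 cells treated with BRD-3811 (0, 0.04, 0.29, 2, 10 uM) for 90 min at 37 C, then heated 3 min at one of 12 temperatures (42-63.9 C). Soluble protein was quantified by TMT10 MS. The value is the DLPTP call of the paper: dose-dependent thermal stabilisation over all temperatures at 10% FDR (F-test of a dose-response against a flat model); one experiment, one call per tested protein.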

Q: With DCK (UniProt P27707) as the target, how does the “dose-dependent thermal stabilisation call” value read?
A: inactive: 0

Q: For DNAJB1 (UniProt P25685), which “dose-dependent thermal stabilisation call” value is on record?
A: inactive: 0

Q: DDX50 (UniProt Q9BQ39) was tested. Which “dose-dependent thermal stabilisation call” value did it give?
A: inactive: 0

Q: How did the “dose-dependent thermal stabilisation call” value turn out when DNTTIP2 (UniProt Q5QJE6) was run?
A: inactive: 0

Q: For DDB1 (UniProt Q16531), which “dose-dependent thermal stabilisation call” value is on record?
A: inactive: 0

Q: DBR1 (UniProt Q9UK59) was tested. Which “dose-dependent thermal stabilisation call” value did it give?
A: inactive: 0

Q: For DKC1 (UniProt O60832), which “dose-dependent thermal stabilisation call” value is on record?
A: inactive: 0

Q: DPH1 (UniProt Q9BZG8) was tested. Which “dose-dependent thermal stabilisation call” value did it give?
A: inactive: 0

Q: With DARS2 (UniProt Q6PI48) as the target, how does the “dose-dependent thermal stabilisation call” value read?
A: inactive: 0

Q: Which “dose-dependent thermal stabilisation call” value does the source give for DPY19L4 (UniProt Q7Z388) here?
A: inactive: 0

Q: For DNAJC16 (UniProt Q9Y2G8), which “dose-dependent thermal stabilisation call” value is on record?
A: inactive: 0

Q: With DENND4C (UniProt Q5VZ89) as the target, how does the “dose-dependent thermal stabilisation call” value read?
A: inactive: 0

Q: For DEGS1 (UniProt O15121), which “dose-dependent thermal stabilisation call” value is on record?
A: inactive: 0

Q: Which “dose-dependent thermal stabilisation call” value does the source give for DOCK10 (UniProt Q96BY6) here?
A: inactive: 0

Q: For DNM1L (UniProt O00429), which “dose-dependent thermal stabilisation call” value is on record?
A: inactive: 0

Q: DLGAP4 (UniProt Q9Y2H0) was tested. Which “dose-dependent thermal stabilisation call” value did it give?
A: inactive: 0

Q: DENND1B (UniProt Q6P3S1) was tested. Which “dose-dependent thermal stabilisation call” value did it give?
A: inactive: 0

Q: With DPM3 (UniProt Q9P2X0) as the target, how does the “dose-dependent thermal stabilisation call” value read?
A: inactive: 0

Q: Which “dose-dependent thermal stabilisation call” value does the source give for DNAJC8 (UniProt O75937) here?
A: inactive: 0

Q: How did the “dose-dependent thermal stabilisation call” value turn out when CWC15 (UniProt Q9P013) was run?
A: inactive: 0

Q: Which “dose-dependent thermal stabilisation call” value does the source give for DDX1 (UniProt Q92499) here?
A: inactive: 0

Q: How did the “dose-dependent thermal stabilisation call” value turn out when DGAT1 (UniProt O75907) was run?
A: inactive: 0

Q: For DDX19A (UniProt Q9NUU7), which “dose-dependent thermal stabilisation call” value is on record?
A: inactive: 0

Q: With DJ-1 as the target, how does the “dose-dependent thermal stabilisation call” value read?
A: inactive: 0

Q: DIAPH3 (UniProt Q9NSV4) was tested. Which “dose-dependent thermal stabilisation call” value did it give?
A: inactive: 0

Q: With DLG1 (UniProt Q12959) as the target, how does the “dose-dependent thermal stabilisation call” value read?
A: inactive: 0

Q: DGKZ (UniProt Q13574) was tested. Which “dose-dependent thermal stabilisation call” value did it give?
A: inactive: 0

Q: For DHX29 (UniProt Q7Z478), which “dose-dependent thermal stabilisation call” value is on record?
A: inactive: 0

Q: For DDOST (UniProt P39656), which “dose-dependent thermal stabilisation call” value is on record?
A: inactive: 0

Q: How did the “dose-dependent thermal stabilisation call” value turn out when DGCR14 (UniProt Q96DF8) was run?
A: inactive: 0

Q: How did the “dose-dependent thermal stabilisation call” value turn out when DEF6 (UniProt Q9H4E7) was run?
A: inactive: 0

Q: For DECR2 (UniProt Q9NUI1), which “dose-dependent thermal stabilisation call” value is on record?
A: inactive: 0

Q: DHRS7 (UniProt Q9Y394) was tested. Which “dose-dependent thermal stabilisation call” value did it give?
A: inactive: 0

Q: Which “dose-dependent thermal stabilisation call” value does the source give for DDX56 (UniProt Q9NY93) here?
A: inactive: 0

Q: How did the “dose-dependent thermal stabilisation call” value turn out when DNAJC21 (UniProt Q5F1R6) was run?
A: inactive: 0

Q: DIAPH2 (UniProt O60879) was tested. Which “dose-dependent thermal stabilisation call” value did it give?
A: inactive: 0
